Some targets named below: APEX2:RAB7A (human) (UniProt P51149); APEX2:RAB21 (human) (UniProt Q9UL25); MYC:APEX2:RAB35 (human) (UniProt Q15286).
Assay in all cases: proximity labelling
Assay [1] has as its target T1, MYC:APEX2:RAB25 (human) (UniProt P57735).
T1 sequence: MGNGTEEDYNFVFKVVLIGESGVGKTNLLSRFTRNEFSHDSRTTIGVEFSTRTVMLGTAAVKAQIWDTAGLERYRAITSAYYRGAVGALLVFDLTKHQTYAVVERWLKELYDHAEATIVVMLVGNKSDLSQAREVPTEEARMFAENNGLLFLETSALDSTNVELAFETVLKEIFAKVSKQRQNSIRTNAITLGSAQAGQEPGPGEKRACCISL

The chains behind the UniProt entries cited, without tags or fusion partners.
UniProt P51149: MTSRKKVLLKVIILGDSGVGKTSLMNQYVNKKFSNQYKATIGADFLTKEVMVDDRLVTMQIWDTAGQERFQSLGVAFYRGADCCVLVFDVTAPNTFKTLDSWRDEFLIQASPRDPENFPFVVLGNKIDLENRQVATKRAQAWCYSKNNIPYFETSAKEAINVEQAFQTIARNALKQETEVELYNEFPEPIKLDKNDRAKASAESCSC
UniProt Q9UL25: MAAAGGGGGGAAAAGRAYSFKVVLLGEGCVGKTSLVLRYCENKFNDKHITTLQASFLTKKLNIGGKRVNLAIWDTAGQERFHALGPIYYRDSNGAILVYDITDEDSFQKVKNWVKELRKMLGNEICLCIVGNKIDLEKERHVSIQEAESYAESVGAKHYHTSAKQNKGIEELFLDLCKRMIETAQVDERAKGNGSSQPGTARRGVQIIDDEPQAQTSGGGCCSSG
UniProt Q15286: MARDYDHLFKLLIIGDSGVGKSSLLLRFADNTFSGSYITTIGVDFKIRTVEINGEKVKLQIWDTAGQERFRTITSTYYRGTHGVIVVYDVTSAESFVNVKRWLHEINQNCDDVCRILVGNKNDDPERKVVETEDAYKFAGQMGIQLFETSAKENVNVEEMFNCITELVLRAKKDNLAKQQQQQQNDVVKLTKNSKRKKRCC
UniProt Q9Y5R8: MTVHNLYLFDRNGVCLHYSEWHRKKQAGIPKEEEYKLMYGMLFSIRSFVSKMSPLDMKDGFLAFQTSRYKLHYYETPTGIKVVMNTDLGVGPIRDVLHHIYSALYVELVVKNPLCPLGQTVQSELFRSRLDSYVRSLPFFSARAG
UniProt P48553: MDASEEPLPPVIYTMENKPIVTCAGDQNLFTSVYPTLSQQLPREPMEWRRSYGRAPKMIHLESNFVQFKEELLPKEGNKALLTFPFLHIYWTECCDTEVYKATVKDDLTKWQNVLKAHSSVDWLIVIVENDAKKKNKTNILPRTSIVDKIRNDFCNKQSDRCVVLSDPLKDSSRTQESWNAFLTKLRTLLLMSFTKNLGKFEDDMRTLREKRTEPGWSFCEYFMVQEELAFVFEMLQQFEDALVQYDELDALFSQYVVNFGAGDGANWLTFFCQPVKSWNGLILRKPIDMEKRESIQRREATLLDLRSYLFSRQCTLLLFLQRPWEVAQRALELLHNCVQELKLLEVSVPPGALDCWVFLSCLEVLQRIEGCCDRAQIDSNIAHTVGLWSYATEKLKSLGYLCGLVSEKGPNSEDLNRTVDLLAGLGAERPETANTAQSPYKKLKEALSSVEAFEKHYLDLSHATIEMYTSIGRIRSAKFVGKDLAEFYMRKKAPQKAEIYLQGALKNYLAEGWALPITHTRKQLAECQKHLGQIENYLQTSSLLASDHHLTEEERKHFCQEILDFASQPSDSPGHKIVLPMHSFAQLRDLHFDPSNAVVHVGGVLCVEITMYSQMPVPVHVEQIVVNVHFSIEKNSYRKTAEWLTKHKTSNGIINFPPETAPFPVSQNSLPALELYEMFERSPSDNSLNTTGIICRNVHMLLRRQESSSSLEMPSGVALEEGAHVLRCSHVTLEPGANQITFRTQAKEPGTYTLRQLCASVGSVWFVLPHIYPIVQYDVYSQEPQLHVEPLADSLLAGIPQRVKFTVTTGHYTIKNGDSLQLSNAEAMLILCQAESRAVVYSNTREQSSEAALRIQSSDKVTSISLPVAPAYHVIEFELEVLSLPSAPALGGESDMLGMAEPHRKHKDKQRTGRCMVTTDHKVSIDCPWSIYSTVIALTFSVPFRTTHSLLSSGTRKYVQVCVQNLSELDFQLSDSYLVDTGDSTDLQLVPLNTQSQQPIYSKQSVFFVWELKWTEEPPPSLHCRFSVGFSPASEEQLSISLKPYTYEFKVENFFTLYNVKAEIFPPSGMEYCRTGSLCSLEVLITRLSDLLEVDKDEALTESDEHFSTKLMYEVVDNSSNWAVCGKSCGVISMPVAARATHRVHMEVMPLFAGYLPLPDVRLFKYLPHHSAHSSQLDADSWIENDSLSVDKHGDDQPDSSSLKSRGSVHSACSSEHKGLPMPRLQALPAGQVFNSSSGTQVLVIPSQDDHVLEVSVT
UniProt Q96Q42: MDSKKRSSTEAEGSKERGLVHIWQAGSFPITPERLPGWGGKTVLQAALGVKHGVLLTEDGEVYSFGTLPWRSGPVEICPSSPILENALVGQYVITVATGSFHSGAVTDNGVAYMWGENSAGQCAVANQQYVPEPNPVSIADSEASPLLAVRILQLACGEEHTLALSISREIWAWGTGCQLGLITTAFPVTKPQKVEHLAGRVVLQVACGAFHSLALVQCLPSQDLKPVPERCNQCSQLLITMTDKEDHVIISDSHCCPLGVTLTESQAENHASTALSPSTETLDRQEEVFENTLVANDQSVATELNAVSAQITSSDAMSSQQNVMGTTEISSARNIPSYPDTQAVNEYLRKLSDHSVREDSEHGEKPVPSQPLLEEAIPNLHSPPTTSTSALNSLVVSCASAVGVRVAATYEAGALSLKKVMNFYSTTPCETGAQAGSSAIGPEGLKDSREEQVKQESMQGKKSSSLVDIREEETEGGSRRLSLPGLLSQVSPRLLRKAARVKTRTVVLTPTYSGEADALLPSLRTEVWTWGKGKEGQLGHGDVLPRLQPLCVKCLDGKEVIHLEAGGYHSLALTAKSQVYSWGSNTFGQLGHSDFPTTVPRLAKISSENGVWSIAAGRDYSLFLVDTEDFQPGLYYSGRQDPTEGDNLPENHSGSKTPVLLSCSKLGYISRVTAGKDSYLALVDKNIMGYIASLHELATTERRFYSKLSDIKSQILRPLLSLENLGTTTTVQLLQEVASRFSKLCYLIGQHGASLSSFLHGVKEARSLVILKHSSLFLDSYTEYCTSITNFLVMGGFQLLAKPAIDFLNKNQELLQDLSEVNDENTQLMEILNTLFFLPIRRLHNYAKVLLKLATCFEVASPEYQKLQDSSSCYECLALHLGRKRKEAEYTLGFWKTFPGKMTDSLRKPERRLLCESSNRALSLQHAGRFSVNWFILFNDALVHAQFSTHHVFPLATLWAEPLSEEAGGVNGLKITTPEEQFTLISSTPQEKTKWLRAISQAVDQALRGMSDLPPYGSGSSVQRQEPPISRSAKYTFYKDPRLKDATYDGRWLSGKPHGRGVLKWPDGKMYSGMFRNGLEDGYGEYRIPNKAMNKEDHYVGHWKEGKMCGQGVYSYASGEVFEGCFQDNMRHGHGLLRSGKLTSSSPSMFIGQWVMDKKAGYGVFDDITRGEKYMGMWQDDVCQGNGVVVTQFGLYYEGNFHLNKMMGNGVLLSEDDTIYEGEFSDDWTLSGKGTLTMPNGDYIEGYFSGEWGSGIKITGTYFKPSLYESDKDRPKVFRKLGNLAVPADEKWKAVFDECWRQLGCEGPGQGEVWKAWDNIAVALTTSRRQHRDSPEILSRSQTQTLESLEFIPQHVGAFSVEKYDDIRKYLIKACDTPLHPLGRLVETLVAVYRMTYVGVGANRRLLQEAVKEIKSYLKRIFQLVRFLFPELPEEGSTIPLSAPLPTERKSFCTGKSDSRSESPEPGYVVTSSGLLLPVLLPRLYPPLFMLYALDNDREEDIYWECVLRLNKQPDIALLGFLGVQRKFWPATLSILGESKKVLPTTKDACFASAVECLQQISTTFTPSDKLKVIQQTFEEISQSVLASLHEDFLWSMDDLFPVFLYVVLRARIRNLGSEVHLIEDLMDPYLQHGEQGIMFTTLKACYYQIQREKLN
UniProt Q92609: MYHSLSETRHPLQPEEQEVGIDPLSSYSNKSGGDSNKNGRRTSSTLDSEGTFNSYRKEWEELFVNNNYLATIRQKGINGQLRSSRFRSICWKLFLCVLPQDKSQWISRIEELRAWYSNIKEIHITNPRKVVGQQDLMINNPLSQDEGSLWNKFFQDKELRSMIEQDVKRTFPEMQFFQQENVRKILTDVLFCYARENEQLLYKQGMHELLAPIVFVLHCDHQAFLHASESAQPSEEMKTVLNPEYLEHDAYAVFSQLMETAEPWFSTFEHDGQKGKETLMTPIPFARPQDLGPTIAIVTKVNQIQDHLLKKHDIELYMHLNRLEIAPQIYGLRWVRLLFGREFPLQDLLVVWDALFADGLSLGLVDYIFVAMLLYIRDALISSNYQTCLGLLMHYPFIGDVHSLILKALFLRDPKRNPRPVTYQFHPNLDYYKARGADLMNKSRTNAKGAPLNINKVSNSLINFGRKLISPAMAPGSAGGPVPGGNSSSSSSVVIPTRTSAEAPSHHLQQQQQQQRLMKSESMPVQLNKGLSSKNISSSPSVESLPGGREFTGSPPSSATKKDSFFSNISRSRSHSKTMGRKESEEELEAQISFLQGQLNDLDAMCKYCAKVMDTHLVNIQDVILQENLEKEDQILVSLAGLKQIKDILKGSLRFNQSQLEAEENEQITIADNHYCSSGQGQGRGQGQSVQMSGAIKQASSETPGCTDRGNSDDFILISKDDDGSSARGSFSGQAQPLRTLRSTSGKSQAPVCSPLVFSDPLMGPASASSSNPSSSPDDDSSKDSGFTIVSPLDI
UniProt Q96NW4: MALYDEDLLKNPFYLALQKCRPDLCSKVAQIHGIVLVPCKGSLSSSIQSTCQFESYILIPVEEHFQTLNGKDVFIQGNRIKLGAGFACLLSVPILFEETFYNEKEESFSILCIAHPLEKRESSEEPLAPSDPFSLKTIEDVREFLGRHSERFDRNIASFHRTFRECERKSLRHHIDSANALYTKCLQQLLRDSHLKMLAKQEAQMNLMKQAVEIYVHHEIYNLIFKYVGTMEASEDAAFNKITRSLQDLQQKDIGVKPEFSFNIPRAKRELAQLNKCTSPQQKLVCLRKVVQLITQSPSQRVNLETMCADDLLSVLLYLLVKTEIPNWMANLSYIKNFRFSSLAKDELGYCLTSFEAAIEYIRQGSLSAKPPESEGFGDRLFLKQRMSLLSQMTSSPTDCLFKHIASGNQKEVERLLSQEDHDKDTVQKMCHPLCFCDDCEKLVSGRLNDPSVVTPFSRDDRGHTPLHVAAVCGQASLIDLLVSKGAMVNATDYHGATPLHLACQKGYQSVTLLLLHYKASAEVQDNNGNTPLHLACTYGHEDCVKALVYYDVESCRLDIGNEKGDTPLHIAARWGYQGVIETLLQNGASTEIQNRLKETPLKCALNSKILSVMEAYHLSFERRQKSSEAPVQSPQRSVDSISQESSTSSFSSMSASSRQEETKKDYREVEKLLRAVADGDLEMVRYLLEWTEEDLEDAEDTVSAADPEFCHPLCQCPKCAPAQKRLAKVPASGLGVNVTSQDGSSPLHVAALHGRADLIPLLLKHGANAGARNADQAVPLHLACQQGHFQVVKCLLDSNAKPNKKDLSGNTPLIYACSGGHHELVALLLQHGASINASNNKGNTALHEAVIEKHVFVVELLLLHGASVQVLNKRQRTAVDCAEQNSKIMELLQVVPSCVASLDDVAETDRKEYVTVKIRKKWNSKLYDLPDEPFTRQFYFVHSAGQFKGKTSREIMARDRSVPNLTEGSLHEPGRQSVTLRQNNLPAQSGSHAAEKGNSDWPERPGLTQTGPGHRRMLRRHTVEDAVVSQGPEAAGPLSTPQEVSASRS

The target in assay [2] is T2, MYC:APEX2:RAB32 (human) (UniProt Q13637).
T2 sequence: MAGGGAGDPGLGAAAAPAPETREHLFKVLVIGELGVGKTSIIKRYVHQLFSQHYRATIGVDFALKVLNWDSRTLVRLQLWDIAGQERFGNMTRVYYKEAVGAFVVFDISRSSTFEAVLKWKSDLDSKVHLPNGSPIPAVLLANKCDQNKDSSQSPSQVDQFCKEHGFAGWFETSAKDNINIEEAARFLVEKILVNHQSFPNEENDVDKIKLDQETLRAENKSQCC

In assay [3] the target is T2, MYC:APEX2:RAB32 (human). This is another data set of the same source.
The target of assay [4] is T1, MYC:APEX2:RAB25 (human). The source holds these as a separate data set.

This is an account of results in paper doi:10.1101/2024.11.05.621850.

Read-outs that look alike come from different tables or passages of the source. These are yes or no findings as the source states them, for the method shown. Binding seen in cells or lysates may run through a third protein. These calls come from enrichment with a bait or labelling near it, and not all partners need be listed. For some assays here: Tags and fused reporters may be left off the sequences shown.

Turning to TRAPPC1 (from UniProt Q9Y5R8 1-145), the binding entry with MYC:APEX2:RAB25 (human) [1] is “binds”.

Turning to TRAPPC10 (from UniProt P48553 1-1259), the binding result with MYC:APEX2:RAB25 (human) [1] is “binds”.

For the molecule “ALS2 (endogenous) (from UniProt Q96Q42 1-1657)”, in the assay with MYC:APEX2:RAB25 (human) [1], the binding entry is “binds”.

Consider TBC1D5 (from UniProt Q92609 1-795), for which the binding entry with APEX2:RAB7A (human) is “binds”.

VARP (from UniProt Q96NW4 1-1050): the binding result with APEX2:RAB21 (human) and with MYC:APEX2:RAB32 (human) [2] was “binds” in each case.

B1: RN-TRE (USP6-NL) (protein, UniProt Q92738 1-828)
chain: MNSDQDVALKLAQERAEIVAKYDRGREGAEIEPWEDADYLVYKVTDRFGFLHEEELPDHNVAVERQKHLEIERTTKWLKMLKGWEKYKNTEKFHRRIYKGIPLQLRGEVWALLLEIPKMKEETRDLYSKLKHRARGCSPDIRQIDLDVNRTFRDHIMFRDRYGVKQQSLFHVLAAYSIYNTEVGYCQGMSQITALLLMYMNEEDAFWALVKLFSGPKHAMHGFFVQGFPKLLRFQEHHEKILNKFLSKLKQHLDSQEIYTSFYTMKWFFQCFLDRTPFTLNLRIWDIYIFEGERVLTAMSYTILKLHKKHLMKLSMEELVEFFQETLAKDFFFEDDFVIEQLQISMTELKRAKLDLPEPGKEDEYPKKPLGQLPPELQSWGVHHLSNGQRSVGRPSPLASGRRESGAPHRRHEHSPHPQSRTGTPERAQPPRRKSVEEESKKLKDEADFQRKLPSGPQDSSRQYNHAAANQNSNATSNIRKEFVPKWNKPSDVSATERTAKYTMEGKGRAAHPALAVTVPGPAEVRVSNVRPKMKALDAEDGKRGSTASQYDNVPGPELDSGASVEEALERAYSQSPRHALYPPSPRKHAEPSSSPSKVSNKFTFKVQPPSHARYPSQLDGEARGLAHPPSYSNPPVYHGNSPKHFPTANSSFASPQFSPGTQLNPSRRPHGSTLSVSASPEKSYSRPSPLVLPSSRIEVLPVDTGAGGYSGNSGSPKNGKLIIPPVDYLPDNRTWSEVSYTYRPETQGQSWTRDASRGNLPKYSAFQLAPFQDHGLPAVSVDSPVRYKASPAAEDASPSGYPYSGPPPPAYHYRNRDGLSIQESVLL
With B1, the binding result with MYC:APEX2:RAB35 (human) is “binds”.

B2: GRAB (endogenous) (protein, UniProt Q8TBN0 1-382)
chain: MWSGPPQPDQGLPPPLAAVPVPWKSTDPCQGHRESPGALVETSAGEEAQGQEGPAAAQLDVLRLRSSSMEIREKGSEFLKEELHRAQKELKLKDEECERLSKVREQLEQELEELTASLFEEAHKMVREANMKQAASEKQLKEARGKIDMLQAEVTALKTLVITSTPASPNRELHPQLLSPTKAGPRKGHSRHKSTSSTLCPAVCPAAGHTLTPDREGKEVDTILFAEFQAWRESPTLDKTCPFLERVYREDVGPCLDFTMQELSVLVRAAVEDNTLTIEPVASQTLPTVKVAEVDCSSTNTCALSGLTRTCRHRIRLGDSKSHYYISPSSRARITAVCNFFTYIRYIQQGLVRQDAEPMFWEIMRLRKEMSLAKLGFFPQEA
In the case of B2, the binding entry with MYC:APEX2:RAB32 (human) [3] is given as “binds”.

B3: TBC1D8B (protein, UniProt Q0IIM8 1-1120)
chain: MWLKPEEVLLKNALKLWLMERSNDYFVLQRRRGYGEEGGGGLTGLLVGTLDSVLDSTAKVAPFRILHQTPDSQVYLSIACGANREEITKHWDWLEQNIMKTLSVFDSNEDITNFVQGKIRGLIAEEGKHCFAKEDDPEKFREALLKFEKCFGLPEKEKLVTYYSCSYWKGRVPCQGWLYLSTNFLSFYSFLLGSEIKLIISWDEVSKLEKTSNVILTESIHVCSQGENHYFSMFLHINQTYLLMEQLANYAIRRLFDKETFDNDPVLYNPLQITKRGLENRAHSEQFNAFFRLPKGESLKEVHECFLWVPFSHFNTHGKMCISENYICFASQDGNQCSVIIPLREVLAIDKTNDSSKSVIISIKGKTAFRFHEVKDFEQLVAKLRLRCGAASTQYHDISTELAISSESTEPSDNFEVQSLTSQRECSKTVNTEALMTVFHPQNLETLNSKMLKEKMKEQSWKILFAECGRGVSMFRTKKTRDLVVRGIPETLRGELWMLFSGAVNDMATNPDYYTEVVEQSLGTCNLATEEIERDLRRSLPEHPAFQSDTGISALRRVLTAYAYRNPKIGYCQAMNILTSVLLLYAKEEEAFWLLVAVCERMLPDYFNRRIIGALVDQAVFEELIRDHLPQLTEHMTDMTFFSSVSLSWFLTLFISVLPIESAVNVVDCFFYDGIKAILQLGLAILDYNLDKLLTCKDDAEAVTALNRFFDNVTNKDSPLPSNVQQGSNVSDEKTSHTRVDITDLIRESNEKYGNIRYEDIHSMRCRNRLYVIQTLEETTKQNVLRVVSQDVKLSLQELDELYVIFKKELFLSCYWCLGCPVLKHHDPSLPYLEQYQIDCQQFRALYHLLSPWAHSANKDSLALWTFRLLDENSDCLINFKEFSSAIDIMYNGSFTEKLKLLFKLHIPPAYTEVKSKDASKGDELSKEELLYFSQLHVSKPANEKEAESAKHSPEKGKGKIDIQAYLSQWQDELFKKEENIKDLPRMNQSQFIQFSKTLYNLFHEDPEEESLYQAIAVVTSLLLRMEEVGRKLHSPTSSAKGFSGTVCGSGGPSEEKTGSHLEKDPCSFREEPQWSFAFEQILASLLNEPALVRFFEKPIDVKAKLENARISQLRSRTKM
In the case of B3, the binding entry with MYC:APEX2:RAB25 (human) [4] is “binds”.

B4: TBC1D10B (protein, UniProt Q4KMP7 1-808)
chain: METGTAPLVAPPRRHGAPAAPSPPPRGSRAGPVVVVAPGPPVTTATSAPVTLVAPGEARPAWVPGSAETSAPAPAPAPAPAPAVTGSTVVVLTLEASPEAPKPQLPSGPESPEPAAVAGVETSRALAAGADSPKTEEARPSPAPGPGTPTGTPTRTPSRTAPGALTAKPPLAPKPGTTVASGVTARSASGQVTGGHGAAAATSASAGQAPEDPSGPGTGPSGTCEAPVAVVTVTPAPEPAENSQDLGSTSSLGPGISGPRGQAPDTLSYLDSVSLMSGTLESLADDVSSMGSDSEINGLALRKTDKYGFLGGSQYSGSLESSIPVDVARQRELKWLDMFSNWDKWLSRRFQKVKLRCRKGIPSSLRAKAWQYLSNSKELLEQNPGKFEELERAPGDPKWLDVIEKDLHRQFPFHEMFAARGGHGQQDLYRILKAYTIYRPDEGYCQAQAPVAAVLLMHMPAEQAFWCLVQICDKYLPGYYSAGLEAIQLDGEIFFALLRRASPLAHRHLRRQRIDPVLYMTEWFMCIFARTLPWASVLRVWDMFFCEGVKIIFRVALVLLRHTLGSVEKLRSCQGMYETMEQLRNLPQQCMQEDFLVHEVTNLPVTEALIERENAAQLKKWRETRGELQYRPSRRLHGSRAIHEERRRQQPPLGPSSSLLSLPGLKSRGSRAAGGAPSPPPPVRRASAGPAPGPVVTAEGLHPSLPSPTGNSTPLGSSKETRKQEKERQKQEKERQKQEKEREKERQKQEKEREKQEKEREKQEKERQKQEKKAQGRKLSLRRKADGPPGPHDGGDRPSAEARQDAYF
B4: the binding entry in the assay with MYC:APEX2:RAB35 (human) is on record as “binds”.

B5: DENND6A (endogenous) (protein, UniProt Q8IWF6 1-608)
chain: MALRGPAGLGPGSRRPLDEAVAGAEGREAPALVAAGGAPEDDEEDDGRGRGLLRWDSFSAWLHCVCVVGFDLELGQAVEVIYPQHSKLTDREKTNICYLSFPDSNSGCLGDTQFCFRFRQSSGRRVSLHCLLDQFDKDLPVYLKKDPAYFYGYVYFRQVRDKTLKRGYFQKSLVLISKLPYIHFFHTVLKQIAPEYFEKNEPYLEAACNDVDRWPAPVPGKTLHLPIMGVVMKVRIPTCHDKPGTTQIVQLTQQVDTNISVILPTVHEVDIFRCFCPVFLHSQMLWELVLLGEPLVVMAPSPSESSETVLALVNCISPLKYFSDFRPYFTIHDSEFKEYTTRTQAPPSVILGVTNPFFAKTLQHWPHIIRIGDLKPTGEIPKQVKVKKLKNLKTLDSKPGVYTSYKPYLNRDEEIIKQLQKGVQQKRPSEAQSVILRRYFLELTQSFIIPLERYVASLMPLQKSISPWKSPPQLRQFLPEEFMKTLEKTGPQLTSRIKGDWIGLYRHFLKSPNFDGWFKTRRKEMTQKLEALHLEALCEEDLLLWIQKHTEVETVDLVLKLKNKLLQADREHLPVKPDTMEKLRTHIDAIILALPEDLQGILLKTGMT
For the molecule B5, the binding result with MYC:APEX2:RAB25 (human) [4] is “binds”.
